Test results reported in PubChem BioAssay AID188 (DTP/NCI, 2004).
Shown are survivors of the treated group in tumour-free mice. Survivors were counted at the toxicity check, usually on the fifth day, unless a day is given; later deaths do not show. Schedules are NCI's codes, taken here to give the interval after Q, in days (D) or hours (H), and the number of doses after X.

Test system: CD2F1 mice, nontumored, toxicity/survival
Test: NCI In Vivo Anticancer Drug Screen. Data for tumor model Nontumored Animals (Toxicity Test) in CD2F1 (CDF1) mice

c1cc2n(n1)CCN2
survivor count (dose: 8.0 mg/kg/injection, schedule: Q03HX008 (ip), vehicle: saline): 8 of 8
survivor count (dose: 8.0 mg/kg/injection, schedule: Q03HX016 (ip), vehicle: saline): 7 of 8
survivor count (dose: 8.0 mg/kg/injection, schedule: Q03HX024 (ip), vehicle: saline): 8 of 8
survivor count (dose: 16.0 mg/kg/injection, schedule: Q03HX008 (ip), vehicle: saline): 7 of 8
survivor count (dose: 16.0 mg/kg/injection, schedule: Q03HX016 (ip), vehicle: saline): 8 of 8
survivor count (dose: 16.0 mg/kg/injection, schedule: Q03HX024 (ip), vehicle: saline): 8 of 8
survivor count (dose: 32.0 mg/kg/injection, schedule: Q01DX005 (ip), vehicle: saline): 8 of 8
survivor count (dose: 32.0 mg/kg/injection, schedule: Q03HX008 (ip), vehicle: saline): 7 of 8
survivor count (dose: 32.0 mg/kg/injection, schedule: Q03HX016 (ip), vehicle: saline): 6 of 8
survivor count (dose: 32.0 mg/kg/injection, schedule: Q03HX024 (ip), vehicle: saline): 8 of 8
survivor count (dose: 50.0 mg/kg/injection, schedule: Q08DX002 (ip), vehicle: clinical formulation): 8 of 8
survivor count (dose: 50.0 mg/kg/injection, schedule: Q08DX002 (ip), vehicle: water): 8 of 8
survivor count (dose: 64.0 mg/kg/injection, schedule: Q01DX005 (ip), vehicle: saline): 8 of 8
survivor count (dose: 64.0 mg/kg/injection, schedule: Q01DX009 (ip), vehicle: saline): 8 of 8
survivor count (dose: 64.0 mg/kg/injection, schedule: Q03HX008 (ip), vehicle: saline): 6 of 8
survivor count (dose: 64.0 mg/kg/injection, schedule: Q03HX016 (ip), vehicle: saline): 7 of 8
survivor count (dose: 64.0 mg/kg/injection, schedule: Q03HX024 (ip), vehicle: saline): 8 of 8
survivor count (dose: 100.0 mg/kg/injection, schedule: Q08DX002 (ip), vehicle: clinical formulation): 8 of 8
survivor count (dose: 100.0 mg/kg/injection, schedule: Q08DX002 (ip), vehicle: water): 8 of 8
survivor count (dose: 128.0 mg/kg/injection, schedule: Q01DX001 (ip), vehicle: saline): 8 of 8
survivor count (dose: 128.0 mg/kg/injection, schedule: Q01DX005 (ip), vehicle: saline): 8 of 8
survivor count (dose: 128.0 mg/kg/injection, schedule: Q01DX009 (ip), vehicle: saline): 8 of 8
survivor count (dose: 128.0 mg/kg/injection, schedule: Q03HX008 (ip), vehicle: saline): 0 of 8
survivor count (dose: 128.0 mg/kg/injection, schedule: Q03HX016 (ip), vehicle: saline): 2 of 8
survivor count (dose: 128.0 mg/kg/injection, schedule: Q03HX024 (ip), vehicle: saline): 1 of 8
survivor count (dose: 128.0 mg/kg/injection, schedule: Q04DX003 (ip), vehicle: saline): 8 of 8
survivor count (dose: 128.0 mg/kg/injection, schedule: Q08DX002 (ip), vehicle: saline): 8 of 8
survivor count (dose: 200.0 mg/kg/injection, schedule: Q08DX002 (ip), vehicle: clinical formulation): 8 of 8
survivor count (dose: 200.0 mg/kg/injection, schedule: Q08DX002 (ip), vehicle: water): 8 of 8
survivor count (dose: 256.0 mg/kg/injection, schedule: Q01DX001 (ip), vehicle: saline): 7 of 8
survivor count (dose: 256.0 mg/kg/injection, schedule: Q01DX005 (ip), vehicle: saline): 8 of 8
survivor count (dose: 256.0 mg/kg/injection, schedule: Q01DX009 (ip), vehicle: saline): 8 of 8
survivor count (dose: 256.0 mg/kg/injection, schedule: Q04DX003 (ip), vehicle: saline): 8 of 8
survivor count (dose: 256.0 mg/kg/injection, schedule: Q08DX002 (ip), vehicle: saline): 8 of 8
survivor count (dose: 400.0 mg/kg/injection, schedule: Q08DX002 (ip), vehicle: clinical formulation): 8 of 8
survivor count (dose: 400.0 mg/kg/injection, schedule: Q08DX002 (ip), vehicle: water): 8 of 8
survivor count (dose: 512.0 mg/kg/injection, schedule: Q01DX001 (ip), vehicle: saline): 8 of 8
survivor count (dose: 512.0 mg/kg/injection, schedule: Q01DX005 (ip), vehicle: saline): 0 of 8
survivor count (dose: 512.0 mg/kg/injection, schedule: Q01DX009 (ip), vehicle: saline): 1 of 8
survivor count (dose: 512.0 mg/kg/injection, schedule: Q04DX003 (ip), vehicle: saline): 7 of 8
survivor count (dose: 512.0 mg/kg/injection, schedule: Q08DX002 (ip), vehicle: saline): 8 of 8
survivor count (dose: 800.0 mg/kg/injection, schedule: Q08DX002 (ip), vehicle: clinical formulation): 8 of 8
survivor count (dose: 800.0 mg/kg/injection, schedule: Q08DX002 (ip), vehicle: water): 7 of 8
survivor count (dose: 1024.0 mg/kg/injection, schedule: Q01DX001 (ip), vehicle: saline): 5 of 8
survivor count (dose: 1024.0 mg/kg/injection, schedule: Q04DX003 (ip), vehicle: saline): 5 of 8
survivor count (dose: 1024.0 mg/kg/injection, schedule: Q08DX002 (ip), vehicle: saline): 5 of 8
